According to PubChem BioAssay AID2685 (National Center for Advancing Translational Sciences (NCATS), 2010):
The list shows a part of the results. Further columns of the screen follow, without active or inactive calls. The list favours compounds with an active or inconclusive main result. Potencies come from curve fits of mixed quality, noted in brackets.

Experiment: qHTS Assay for Lipid Storage Modulators in Drosophila S3 Cells;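 for cell number change: cells counted by Cell Tracker Red CMTPX staining in the red channel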
Conditions: BODIPY lipid droplet fluorescence, 18-24 h; for cell number change: measured here: cell count max response, cells fed with added oleic acid
Procedure, shortened: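 Drosophila S3 cells loaded with oleic acid (400 uM, as added) and compounds at several concentrations; lipid droplets imaged by 488-nm laser-scanning cytometry, 500–530 nm intensity and object ratio to cell channel. Percent activity normalized to 20 uM Triacsin C.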

[1] = measured here: cell number channel AC50, cells fed with added oleic acid
[2] = measured here: lipid fluorescence (Fed channel) AC50, cells fed with added oleic acid

| Compound | cell number change [%] | AC50 [1] | AC50 [2] |
| --- | --- | --- | --- |
| O=C(Nc1ccc(F)cc1)c1cc2c(s1)CCCC2 | 7.13 | 0.164 µM [falling, full curve, poor fit] |  |
| CCC/C=N/NC(=O)c1ccccc1O | -20.6 |  | 23.1 µM [falling, single point] |
| CCOC(=O)N1CCN(c2nc3ccccc3nc2C(C#N)S(=O)(=O)c2ccc(C)cc2)CC1 (configuration not stated) |  | 0.00461 µM [rising, full curve, poor fit] | 3.66 µM [rising, partial curve, poor fit] |
| Cc1cc(Nc2ccc(C(=O)O)cc2)nc(N)n1 | 25.8 |  |  |
| S=c1[nH]nc(-c2ccc(Cl)cc2)n1Cc1ccccc1 | -29.8 |  | 20.6 µM [falling, single point] |
| CC(NC(=O)c1ccc(N(C)C)cc1)C1CC2CCC1C2 (configuration not stated) |  | 0.092 µM [rising, full curve, poor fit] |  |
| O=C(CNC(=S)N(CCCN1CCOCC1)Cc1cccs1)N1CCCC1 | 2.82 | 6.51 µM [rising, single point] | 6.51 µM [rising, partial curve] |
| CSc1ccc(S(=O)(=O)N2CCC(C(=O)NCc3ccccn3)CC2)cc1 | 26.1 |  | 18.4 µM [rising, partial curve] |
| CC1=NN(C(=S)Nc2ccccc2)C(c2ccccc2)C1 (configuration not stated) | -42.7 | 2.91 µM [falling, single point] | 4.61 µM [rising, single point] |
| CN1C(=O)C(C)(C)c2cc(S(=O)(=O)N3CCN(c4ccccc4F)CC3)ccc21 | -1.44 |  | 11.6 µM [falling, single point] |
| CN(Cc1ccc(F)cc1)C(=O)c1cccc(OCc2ccccc2)c1 | -5.26 |  |  |
| O=C(CSCc1nc2ccccc2[nH]1)N1CCN(c2ccc(F)cc2)CC1 | -29.9 |  | 0.651 µM [rising, single point] |
| COc1cccc(/C=N/NC(=O)c2ccc(=O)n(C)c2)c1O | -2.11 |  | 18.4 µM [rising, single point] |
| c1ccc(-n2nnnc2-n2cnc3ccccc32)cc1 | 48 | 9.2 µM [rising, partial curve] | 6.51 µM [falling, single point] |
| Cc1cc2ccccc2n1CCNC(=O)c1ccc(S(=O)(=O)N2CCCCC2)cc1 |  |  | 29.1 µM [falling, single point] |
| O=C(OCc1ccccc1)C1=NNC2C(=O)N(c3ccccc3)C(=O)C12 (configuration not stated) | 6.03 | 6.51 µM [rising, single point] | 0.13 µM [rising, full curve, poor fit] |
| COc1ccc(-c2cc(C(=O)OC3CCOC3=O)c3ccccc3n2)cc1OC (configuration not stated) | 0.363 |  | 29.1 µM [rising, single point] |
| CC1=NN(C(C#N)c2c(C)nn(Cc3ccccc3)c2C)C(C)(C)C1 (configuration not stated) | 20.7 |  | 16.4 µM [rising, partial curve, poor fit] |

| Compound | cell number change [%] | AC50 [1] | AC50 [2] |
| --- | --- | --- | --- |
| CN(C)S(=O)(=O)N1CCC(Oc2cccc(C(=O)NC3CCCCC3)c2)CC1 | -34.3 | 9.2 µM [falling, partial curve] | 16.4 µM [falling, partial curve, poor fit] |
| Cc1nc(N2CCN(S(=O)(=O)c3ccccc3)CC2)c2cc(-c3ccccc3)sc2n1 | 30.4 | 2.06 µM [rising, full curve] | 0.0326 µM [rising, full curve] |
| CC(=O)Oc1ccc(-c2ccc(C(=O)OCC(=O)N(C)CC(=O)Nc3ccccc3Cl)cc2)cc1 |  |  | 0.146 µM [rising, full curve, poor fit] |
| CC(OC(=O)c1nc(Cl)ccc1Cl)C(=O)NC1CCCCC1C (configuration not stated) | -38 | 18.4 µM [falling, partial curve] |  |
| O=C(CN(CC1CCCO1)C(=O)CNS(=O)(=O)c1ccc(F)cc1)NC1CCCC1 (configuration not stated) | -1.28 |  |  |
| CC(C)(C)c1ccc(S(=O)(=O)NC(Cc2ccccc2)C(=O)O)cc1 (configuration not stated) | -67.7 | 5.8 µM [falling, partial curve] | 0.0164 µM [falling, full curve, poor fit] |
| CSc1ccccc1NC(=O)Cn1c(-c2cscn2)nc2ccccc21 |  | 0.103 µM [rising, full curve, poor fit] | 0.13 µM [rising, full curve, poor fit] |
| O=C(Nc1ccc2c(c1)OCCO2)c1cccc2nc3ccccc3nc12 | -86.6 | 29.1 µM [falling, single point] | 18.4 µM [falling, partial curve] |
| O=C(NC1=NCCS1)c1cccc2ccccc12 | 37.2 | 1.03 µM [rising, full curve, poor fit] |  |
| O=C(CCC(=O)OCc1ccc([N+](=O)[O-])cc1)Nc1ccccc1Cl | -30.9 | 29.1 µM [falling, single point] | 23.1 µM [falling, single point] |
| CCOC(=O)c1ccc(NC(=O)C2C3C=CC(C3)C2C(=O)O)cc1 (configuration not stated) | -1.82 |  | 0.058 µM [falling, full curve, poor fit] |
| CCOc1ccc(Nc2ncnc3c2cnn3-c2ccccc2)cc1 |  | 2.06 µM [rising, partial curve, poor fit] |  |
| Cc1ccc(C)c(NC(=O)CN(C)C(=O)c2ccccc2OCc2ccc(Cl)cc2)c1 | 48.5 | 18.4 µM [rising, partial curve] |  |
| O=C(c1ccc[nH]c1=S)N1CCN(S(=O)(=O)c2ccc(Br)cc2Cl)CC1 | 6.09 |  | 0.103 µM [falling, full curve, poor fit] |
| CC1=C(C(=O)N(C)C)C(c2ccccc2OC(F)F)NC(=O)N1 (configuration not stated) | 4.11 |  |  |
| O=C(c1ccco1)N1CCN(C(=O)C2CCCN(S(=O)(=O)Cc3ccccc3)C2)CC1 (configuration not stated) | 18.4 |  | 4.11 µM [rising, partial curve] |
| CC1CN(S(=O)(=O)c2cc(C(=O)NCc3ccncc3)ccc2Cl)CC(C)O1 (configuration not stated) | -6.33 |  | 0.13 µM [rising, full curve] |
| C/[N+]([O-])=C\CC(=O)c1ccc(-c2ccccc2)cc1 | 0.678 |  |  |

Single entries from the entries so far.
Value of `CN(C)S(=O)(=O)N1CCC(Oc2cccc(C(=O)NC3CCCCC3)c2)CC1` under cell number change [%]: -34.3
Value of `O=C(c1ccco1)N1CCN(C(=O)C2CCCN(S(=O)(=O)Cc3ccccc3)C2)CC1` (configuration not stated) under AC50 [2]: 4.11 µM [rising, partial curve]
